Our source for the binding values is patent US20140221620A1 (PERSEUS PROTEOMICS, published 2014).

Chains of the proteins cited; added tags and fusions are not shown. Lines headed by an entry give the natural chain unless they say otherwise; changes in a name come on top.
UniProt P22223: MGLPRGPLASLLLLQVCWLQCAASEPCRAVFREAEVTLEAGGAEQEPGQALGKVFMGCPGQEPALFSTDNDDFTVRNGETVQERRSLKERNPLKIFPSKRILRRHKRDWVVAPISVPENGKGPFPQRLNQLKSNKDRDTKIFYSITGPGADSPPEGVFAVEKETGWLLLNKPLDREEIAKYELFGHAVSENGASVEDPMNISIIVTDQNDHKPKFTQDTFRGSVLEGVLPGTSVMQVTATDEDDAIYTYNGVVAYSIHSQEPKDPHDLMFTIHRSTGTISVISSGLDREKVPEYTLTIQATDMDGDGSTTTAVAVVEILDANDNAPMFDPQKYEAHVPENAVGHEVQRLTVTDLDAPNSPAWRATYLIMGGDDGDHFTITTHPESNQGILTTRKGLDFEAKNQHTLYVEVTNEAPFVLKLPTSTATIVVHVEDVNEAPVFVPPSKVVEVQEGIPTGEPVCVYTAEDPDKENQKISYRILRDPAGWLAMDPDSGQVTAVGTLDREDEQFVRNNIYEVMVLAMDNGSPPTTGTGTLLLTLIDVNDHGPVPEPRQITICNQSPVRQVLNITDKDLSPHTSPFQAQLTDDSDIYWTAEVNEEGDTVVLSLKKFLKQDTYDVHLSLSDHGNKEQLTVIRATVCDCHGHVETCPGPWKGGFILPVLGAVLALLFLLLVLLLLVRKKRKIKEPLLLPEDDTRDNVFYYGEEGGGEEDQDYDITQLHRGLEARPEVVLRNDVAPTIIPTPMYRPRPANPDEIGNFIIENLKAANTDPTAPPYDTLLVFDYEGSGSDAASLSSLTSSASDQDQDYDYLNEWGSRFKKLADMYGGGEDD

For the assay, the target named is CDH3 protein Fragment 1 (positions 108 to 236 of SEQ ID NO: 38) (human) (UniProt P22223). In words: Western blot, E. coli lysate, reducing gel. A general note: In western blotting, separated proteins are transferred to a membrane and probed.

These are yes or no findings as the source states them, for the method shown. Some results given as binding are weak or reduced against the parent protein; the word gives no strength.

B1: mouse antibody PPAT-057-17 (antibody, V domains shown)
VH: QVKLEESGPVLVAPSQSLSITCTVSGFSLTSYGVHWIRHPPGKGLEWLGVIWAGGNTIYNSALMSRLNISKDNSKSQVFLKMNSLQSDDSAMYYCAKPHYGDYAGFYALDHWGQGTSVTVSS
VL: DVQITQSPSYLAASPGETININCRASKRISKYLAWYQEKPGKTNRLLIYSGSTLQSGIPSRFSGSGSGTDFTLTISSLEPEDFAMYYCQQHNEYPWTFGGGTKLEIK
notes: Mouse monoclonal IgG from a hybridoma; kappa L chain primers were used
B1: the binding entry is “binds”.
